# Literature values in US9725459B2, “3-oxo-tetrahydro-furo[3,2-B]pyrrol-4(5H)-yl) derivatives I” (GRÜNENTHAL GMBH, priority 2014, dated 2017).
# Details: known characteristic of control compound; cited from earlier work
structure (smiles),measurement,value
CC(C)NCC(O)COc1ccc(CC(N)=O)cc1 (stereo not shown) [atenolol],human absorption,approximately 50%
